From the supplement of paper PMC9433722 come the findings set out here.

Test [1] concerns Saos-2. The experiment in a line: cell viability (CCK-8) relative to DMSO control (% of control); higher = less cytotoxic. The following applies: 10 µM; 48 h.
For test [2], the system named is U2OS. The test is described as above. The conditions noted are these: 10 µM; 48 h.

Counter-ions that a name gives are not always drawn. The list shows a part of the results. Many values rest on one well or one pass, so single values are uncertain.

With `CCC1=C(C)CN(C(=O)NCCc2ccc(S(=O)(=O)NC(=O)N[C@H]3CC[C@H](C)CC3)cc2)C1=O` [Glimepiride], the cell viability in test [1] turned out to be 69.4; in test [2] it was 106.
On the same counts, the results for `COC(=O)N[C@H](C(=O)N[C@@H](Cc1ccccc1)[C@@H](O)CN(Cc1ccc(-c2ccccn2)cc1)NC(=O)[C@@H](NC(=O)OC)C(C)(C)C)C(C)(C)C` [Atazanavir] are 59.2 and 107.
On the same counts, the results for `C[C@]12CCC(=O)C=C1CC[C@@H]1[C@@H]2[C@@H](O)C[C@@]2(C)[C@H]1CC[C@]2(O)C(=O)CO` [Hydrocortisone] are 72.1 and 102.
On the same counts, the results for `CCCc1cc(=O)[nH]c(=S)[nH]1` [Propylthiouracil] are 106 and 99.5.
In the case of `CCC[C@H](N[C@@H](C)C(=O)N1[C@H](C(=O)O)C[C@@H]2CCCC[C@@H]21)C(=O)OCC` [Perindopril Erbumine], the cell viability in test [1] was 95.3; in test [2], 101.
On the same counts, the results for `COc1cc2ncnc(Nc3ccc(F)c(Cl)c3)c2cc1OCCCN1CCOCC1` [Gefitinib] are 49.1 and 90.5.
In the case of `NS(=O)(=O)c1cc(C2(O)NC(=O)c3ccccc32)ccc1Cl` (stereo not given) [Chlorthalidone], the results for the cell viability in test [1] and in test [2] were 100 and 88.8, respectively.
On the same counts, the results for `C[C@H]1C[C@@H]2[C@H]([C@@H](O)C[C@@]3(C)[C@H]2CC[C@]3(O)C(=O)CO)[C@@]2(C)C=CC(=O)C=C12` [Methylprednisolone] are 74.9 and 94.
Consider `CCOC(=O)[C@H](CCc1ccccc1)N[C@@H](C)C(=O)N1[C@H](C(=O)O)C[C@H]2CCCC[C@@H]21` [Trandolapril], for which the cell viability turned out to be 108 in test [1] and 85.5 in test [2].
On the same counts, the results for `Clc1ccc2nsnc2c1NC1=NCCN1` [Tizanidine·HCl] are 58.2 and 114.
